Measurements published in patent US10258614B2, “Compositions and methods for treating schizophrenia” (priority 2014, dated 2019).
Where a name gives a salt, the structure may show the parent alone. Some entries share one result that the patent states for a list of compounds.

Key:
[1] = tested on: guinea pig papillary muscle; assay: In vitro electrophysiology, action potential duration; settings: isolated guinea pig papillary muscle
From the text: The effects of Compound (I) on the cardiovascular system were examined in in vitro and in vivo studies.

[2] = tested on: in vitro metabolism of Compound (I); assay: Drug-drug interaction on in vitro metabolism; assay type: in vitro ADME; settings: concomitant drugs

SMILES	concentration that prolonged the action potential duration (APD) [1] [nM]	IC50 [2] [µM]
O=C(CN1CCC(CN2Cc3ccccc3C2=O)CC1)c1ccc(F)cc1 [Compound (I), 2-((1-(2-(4-Fluorophenyl)-2-oxoethyl)piperidin-4-yl)methyl)isoindolin-1-one monohydrochloride dihydrate]	≥ 1000	–
COCCCC/C(=N\OCCN)c1ccc(C(F)(F)F)cc1 [fluvoxamine]	–	> 50
Fc1ccc([C@@H]2CCNC[C@H]2COc2ccc3c(c2)OCO3)cc1 [paroxetine]	–	> 50
